Compound in assay [1]: ClCC(=O)N[C@@H]1CCCc2ccccc12
Nature of the assay: log2 mean competition ratio of IA-DTB cysteine labelling (DMSO/compound) (log2 ratio); higher = stronger cysteine engagement by compound. Particulars: treatment time: 4 h, cell line lysate: HEK293T. The protocol: (§1)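 IA-DTB competitive cysteine chemoproteomics in HEK293T RIPA lysate. Lysates were treated with compound 29 or 30 at 50 or 200 µM for 4 h, then IA-DTB (500 µM, 1 h), trypsin-digested, NeutrAvidin-enriched and analysed by diaPASEF. Competition ratio = intensity DMSO / intensity compound (n=4 treated, n=64 DMSO); binding: mean log2 CR ≥ 1 and p ≤ 0.05 plus QC filters. Target is the cysteine site.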

Chains of the proteins cited; added tags and fusions are not shown. Lines headed by an entry give the natural chain unless they say otherwise; changes in a name come on top. Residues count along the entry.
UniProt P29590: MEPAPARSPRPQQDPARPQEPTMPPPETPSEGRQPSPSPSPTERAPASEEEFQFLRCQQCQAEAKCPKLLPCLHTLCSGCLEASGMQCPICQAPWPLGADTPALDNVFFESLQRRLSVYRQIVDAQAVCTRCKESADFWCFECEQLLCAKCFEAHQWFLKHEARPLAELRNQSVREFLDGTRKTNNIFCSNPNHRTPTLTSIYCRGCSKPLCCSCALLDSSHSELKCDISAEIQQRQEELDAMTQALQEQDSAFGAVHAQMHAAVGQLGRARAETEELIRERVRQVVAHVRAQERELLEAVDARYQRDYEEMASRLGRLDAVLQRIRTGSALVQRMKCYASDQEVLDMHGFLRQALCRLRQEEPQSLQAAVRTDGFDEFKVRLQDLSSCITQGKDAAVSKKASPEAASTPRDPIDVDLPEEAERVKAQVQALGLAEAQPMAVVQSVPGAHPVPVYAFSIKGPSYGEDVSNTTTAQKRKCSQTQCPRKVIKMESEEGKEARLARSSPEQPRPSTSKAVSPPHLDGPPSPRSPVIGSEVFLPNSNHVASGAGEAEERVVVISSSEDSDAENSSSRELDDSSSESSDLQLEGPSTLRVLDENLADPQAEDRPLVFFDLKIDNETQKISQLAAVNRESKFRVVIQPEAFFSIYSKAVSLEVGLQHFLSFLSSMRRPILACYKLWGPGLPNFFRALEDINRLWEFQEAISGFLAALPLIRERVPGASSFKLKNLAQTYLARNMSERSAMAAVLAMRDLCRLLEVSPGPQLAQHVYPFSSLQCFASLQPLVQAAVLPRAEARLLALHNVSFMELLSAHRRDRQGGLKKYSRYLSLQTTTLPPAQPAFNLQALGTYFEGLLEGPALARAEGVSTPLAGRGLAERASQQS
UniProt O75439: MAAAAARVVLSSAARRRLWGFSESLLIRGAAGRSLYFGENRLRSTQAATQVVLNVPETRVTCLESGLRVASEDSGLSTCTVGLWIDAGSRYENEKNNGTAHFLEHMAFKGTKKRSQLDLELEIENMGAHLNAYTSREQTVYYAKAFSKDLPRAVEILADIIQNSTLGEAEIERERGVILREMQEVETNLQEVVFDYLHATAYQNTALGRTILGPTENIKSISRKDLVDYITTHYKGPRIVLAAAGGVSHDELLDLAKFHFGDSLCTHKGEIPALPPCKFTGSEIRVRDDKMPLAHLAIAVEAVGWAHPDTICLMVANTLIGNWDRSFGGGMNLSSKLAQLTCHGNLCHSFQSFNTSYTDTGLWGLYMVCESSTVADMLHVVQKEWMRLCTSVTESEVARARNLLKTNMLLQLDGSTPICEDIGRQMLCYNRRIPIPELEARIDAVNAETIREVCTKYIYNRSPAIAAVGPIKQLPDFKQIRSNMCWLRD
UniProt O00443: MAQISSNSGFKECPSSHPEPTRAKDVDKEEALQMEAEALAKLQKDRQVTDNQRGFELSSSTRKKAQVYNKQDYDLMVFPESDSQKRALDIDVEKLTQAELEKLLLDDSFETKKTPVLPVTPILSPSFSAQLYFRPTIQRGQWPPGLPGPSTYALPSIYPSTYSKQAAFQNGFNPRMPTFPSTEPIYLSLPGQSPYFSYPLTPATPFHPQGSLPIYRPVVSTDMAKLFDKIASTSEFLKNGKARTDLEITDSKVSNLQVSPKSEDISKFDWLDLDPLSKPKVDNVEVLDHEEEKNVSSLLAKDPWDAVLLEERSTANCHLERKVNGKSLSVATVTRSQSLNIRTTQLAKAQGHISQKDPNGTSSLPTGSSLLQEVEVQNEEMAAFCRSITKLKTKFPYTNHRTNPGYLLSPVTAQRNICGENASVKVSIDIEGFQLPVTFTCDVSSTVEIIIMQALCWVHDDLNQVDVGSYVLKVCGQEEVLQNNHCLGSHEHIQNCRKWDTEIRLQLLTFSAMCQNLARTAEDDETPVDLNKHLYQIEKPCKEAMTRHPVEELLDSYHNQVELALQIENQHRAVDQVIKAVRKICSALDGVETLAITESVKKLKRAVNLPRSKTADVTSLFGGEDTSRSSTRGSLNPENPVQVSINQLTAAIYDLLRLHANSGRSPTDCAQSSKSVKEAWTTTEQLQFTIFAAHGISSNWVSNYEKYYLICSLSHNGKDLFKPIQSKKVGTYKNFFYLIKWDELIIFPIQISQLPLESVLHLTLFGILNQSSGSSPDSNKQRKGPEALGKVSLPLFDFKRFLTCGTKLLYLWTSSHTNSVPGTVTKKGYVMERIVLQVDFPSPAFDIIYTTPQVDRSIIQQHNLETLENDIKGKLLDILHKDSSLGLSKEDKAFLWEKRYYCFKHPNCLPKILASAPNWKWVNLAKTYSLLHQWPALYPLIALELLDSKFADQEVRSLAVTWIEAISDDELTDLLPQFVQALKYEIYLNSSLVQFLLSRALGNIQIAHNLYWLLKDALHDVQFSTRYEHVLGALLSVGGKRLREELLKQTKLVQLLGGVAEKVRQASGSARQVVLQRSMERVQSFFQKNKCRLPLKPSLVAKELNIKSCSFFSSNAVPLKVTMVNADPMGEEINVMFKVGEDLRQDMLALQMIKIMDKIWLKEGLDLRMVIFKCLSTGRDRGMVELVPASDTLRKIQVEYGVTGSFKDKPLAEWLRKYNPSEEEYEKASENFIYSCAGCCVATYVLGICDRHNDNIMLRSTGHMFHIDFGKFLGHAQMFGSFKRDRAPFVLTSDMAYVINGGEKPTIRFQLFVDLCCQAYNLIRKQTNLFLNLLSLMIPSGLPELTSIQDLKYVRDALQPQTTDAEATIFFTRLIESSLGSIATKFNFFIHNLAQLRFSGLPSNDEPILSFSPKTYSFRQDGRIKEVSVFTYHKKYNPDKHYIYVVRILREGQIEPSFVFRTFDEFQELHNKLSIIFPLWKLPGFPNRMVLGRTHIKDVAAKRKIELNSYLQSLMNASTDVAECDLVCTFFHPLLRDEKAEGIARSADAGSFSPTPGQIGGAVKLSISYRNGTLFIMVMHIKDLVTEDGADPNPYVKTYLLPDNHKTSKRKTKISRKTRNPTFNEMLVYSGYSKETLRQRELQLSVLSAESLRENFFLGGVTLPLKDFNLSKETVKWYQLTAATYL
UniProt Q16513, 100-120: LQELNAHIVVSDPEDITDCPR
UniProt O94903: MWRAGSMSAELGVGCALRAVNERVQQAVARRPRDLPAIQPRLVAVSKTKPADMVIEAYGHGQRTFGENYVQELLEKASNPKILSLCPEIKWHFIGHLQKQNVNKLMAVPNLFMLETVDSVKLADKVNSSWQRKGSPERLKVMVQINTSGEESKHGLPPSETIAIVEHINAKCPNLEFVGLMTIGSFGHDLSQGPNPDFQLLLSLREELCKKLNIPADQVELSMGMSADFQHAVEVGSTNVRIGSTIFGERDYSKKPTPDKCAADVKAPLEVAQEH
UniProt P46019: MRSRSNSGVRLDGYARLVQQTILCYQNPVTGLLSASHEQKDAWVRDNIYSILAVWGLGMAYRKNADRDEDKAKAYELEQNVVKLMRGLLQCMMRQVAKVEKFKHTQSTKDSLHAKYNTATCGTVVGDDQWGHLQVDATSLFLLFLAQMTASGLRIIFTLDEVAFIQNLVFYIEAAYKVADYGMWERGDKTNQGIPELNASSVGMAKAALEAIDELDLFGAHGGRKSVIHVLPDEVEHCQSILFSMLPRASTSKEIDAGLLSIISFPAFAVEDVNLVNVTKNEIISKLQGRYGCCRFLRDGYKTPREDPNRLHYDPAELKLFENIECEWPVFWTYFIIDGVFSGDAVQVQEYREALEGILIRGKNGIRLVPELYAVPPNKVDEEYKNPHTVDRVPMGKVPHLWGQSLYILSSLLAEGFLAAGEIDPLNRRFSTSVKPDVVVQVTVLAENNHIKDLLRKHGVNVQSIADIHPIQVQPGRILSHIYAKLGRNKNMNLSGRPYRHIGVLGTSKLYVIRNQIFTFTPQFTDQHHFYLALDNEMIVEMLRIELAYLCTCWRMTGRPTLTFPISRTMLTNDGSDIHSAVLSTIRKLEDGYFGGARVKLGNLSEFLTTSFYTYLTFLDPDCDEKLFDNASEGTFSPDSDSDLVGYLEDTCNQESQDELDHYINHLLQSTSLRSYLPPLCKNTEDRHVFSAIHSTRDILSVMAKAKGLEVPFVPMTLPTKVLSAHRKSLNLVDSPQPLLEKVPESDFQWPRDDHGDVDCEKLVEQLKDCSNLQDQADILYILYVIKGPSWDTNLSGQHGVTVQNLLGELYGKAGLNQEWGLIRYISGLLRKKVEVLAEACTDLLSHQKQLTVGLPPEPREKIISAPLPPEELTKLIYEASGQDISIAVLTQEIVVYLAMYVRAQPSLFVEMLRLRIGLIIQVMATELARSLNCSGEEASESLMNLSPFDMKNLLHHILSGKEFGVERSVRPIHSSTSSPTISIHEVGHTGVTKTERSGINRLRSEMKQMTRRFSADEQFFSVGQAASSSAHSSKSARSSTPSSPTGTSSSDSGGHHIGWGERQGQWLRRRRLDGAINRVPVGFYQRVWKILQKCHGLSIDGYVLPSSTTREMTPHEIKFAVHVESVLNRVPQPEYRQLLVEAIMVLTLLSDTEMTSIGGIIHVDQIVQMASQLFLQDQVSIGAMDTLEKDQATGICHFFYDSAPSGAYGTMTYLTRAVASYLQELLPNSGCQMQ
UniProt Q9Y263: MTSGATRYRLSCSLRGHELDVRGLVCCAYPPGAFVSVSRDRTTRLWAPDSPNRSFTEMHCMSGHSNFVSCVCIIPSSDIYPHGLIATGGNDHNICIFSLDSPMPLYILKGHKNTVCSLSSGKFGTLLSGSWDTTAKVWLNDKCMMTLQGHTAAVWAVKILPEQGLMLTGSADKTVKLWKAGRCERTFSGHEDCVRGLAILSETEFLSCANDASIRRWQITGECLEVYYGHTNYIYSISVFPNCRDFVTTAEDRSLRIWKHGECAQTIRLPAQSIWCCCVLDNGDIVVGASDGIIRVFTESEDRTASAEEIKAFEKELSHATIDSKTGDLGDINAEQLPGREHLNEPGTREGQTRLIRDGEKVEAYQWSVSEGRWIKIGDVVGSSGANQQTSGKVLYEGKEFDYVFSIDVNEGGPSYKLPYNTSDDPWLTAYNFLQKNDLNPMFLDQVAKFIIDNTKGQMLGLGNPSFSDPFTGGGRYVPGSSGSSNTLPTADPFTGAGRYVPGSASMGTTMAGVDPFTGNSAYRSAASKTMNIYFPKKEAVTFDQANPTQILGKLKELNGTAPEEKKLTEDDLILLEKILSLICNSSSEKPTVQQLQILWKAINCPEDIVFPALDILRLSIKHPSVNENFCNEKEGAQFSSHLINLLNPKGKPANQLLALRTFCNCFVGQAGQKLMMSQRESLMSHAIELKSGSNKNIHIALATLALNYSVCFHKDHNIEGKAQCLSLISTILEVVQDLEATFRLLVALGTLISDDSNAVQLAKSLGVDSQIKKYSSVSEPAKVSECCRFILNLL
UniProt Q92576, 328-355: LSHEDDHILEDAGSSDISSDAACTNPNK
UniProt Q9P215: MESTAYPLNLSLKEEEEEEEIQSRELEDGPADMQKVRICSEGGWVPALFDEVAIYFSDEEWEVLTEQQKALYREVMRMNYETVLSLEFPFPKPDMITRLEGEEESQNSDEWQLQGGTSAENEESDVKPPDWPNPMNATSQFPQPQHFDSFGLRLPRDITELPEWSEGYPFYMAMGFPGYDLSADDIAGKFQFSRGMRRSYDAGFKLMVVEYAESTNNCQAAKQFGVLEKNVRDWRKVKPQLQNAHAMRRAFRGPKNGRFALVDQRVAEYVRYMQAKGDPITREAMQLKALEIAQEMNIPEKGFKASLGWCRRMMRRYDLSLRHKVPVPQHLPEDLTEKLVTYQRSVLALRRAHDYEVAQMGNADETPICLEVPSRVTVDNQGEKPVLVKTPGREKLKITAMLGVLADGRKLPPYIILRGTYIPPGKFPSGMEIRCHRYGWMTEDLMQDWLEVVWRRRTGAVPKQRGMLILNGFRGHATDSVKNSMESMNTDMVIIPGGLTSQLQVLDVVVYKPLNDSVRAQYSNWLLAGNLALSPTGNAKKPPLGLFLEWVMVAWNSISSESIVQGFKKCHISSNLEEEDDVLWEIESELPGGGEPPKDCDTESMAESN
UniProt Q8N2W9: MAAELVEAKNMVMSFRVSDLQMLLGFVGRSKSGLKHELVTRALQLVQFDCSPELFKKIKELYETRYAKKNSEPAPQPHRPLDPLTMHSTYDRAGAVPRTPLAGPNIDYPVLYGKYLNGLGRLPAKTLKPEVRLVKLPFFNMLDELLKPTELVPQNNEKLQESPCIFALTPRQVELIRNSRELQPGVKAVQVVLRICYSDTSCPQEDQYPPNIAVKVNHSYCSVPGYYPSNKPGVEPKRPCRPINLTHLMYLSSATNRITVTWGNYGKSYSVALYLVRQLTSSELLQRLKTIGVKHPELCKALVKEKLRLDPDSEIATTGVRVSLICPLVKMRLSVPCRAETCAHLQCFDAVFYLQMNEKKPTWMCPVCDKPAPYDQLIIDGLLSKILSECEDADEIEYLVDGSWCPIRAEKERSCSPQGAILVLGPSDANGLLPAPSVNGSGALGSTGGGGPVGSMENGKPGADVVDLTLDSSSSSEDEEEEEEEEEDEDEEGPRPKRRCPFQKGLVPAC

Compound in assay [2]: ClCC(=O)N[C@H]1CCCc2ccccc12
The description is as above. Particulars: treatment time: 4 h, cell line lysate: HEK293T. The method, then:
as §1

These results are taken from the supplement of paper PMC11732987, “Enantioselective OTUD7B fragment discovery through chemoproteomics screening and high-throughput optimisation” (Communications Chemistry, 2025).

The other results are listed elsewhere or left out. The data scatter; read single values as rough.

In the case of PIAS2 C441 (UniProt O75928), the “log2 mean competition ratio” value is -0.0469 in assay [1] (50 µM), 0.108 in assay [1] (200 µM), -0.0157 in assay [2] (50 µM) and 0.136 in assay [2] (200 µM).
For PML C204 (UniProt P29590), in that order: 0.375, 0.473, 0.17 and 0.31.
In the same order, the values of POLR1F C193 are 0.0762, -0.361, -0.0665 and -0.293.
As to POLR1A C937 (UniProt O95602), the “log2 mean competition ratio” value was 0.213 in assay [1] (50 µM), -0.264 in assay [1] (200 µM), 0.201 in assay [2] (50 µM) and -0.0498 in assay [2] (200 µM).
For PLIN2 C47 (UniProt Q99541), in that order: -0.0547, -0.108, -0.472 and -0.118.
For PIAS1 C49 (UniProt O75925), in that order: -0.146, 0.0266, -0.252 and -0.152.
In the same order, the values of PMPCB C62 (UniProt O75439) are 0.00662, -0.0247, -0.122 and 0.00379.
Consider PIAS1 C335 (UniProt O75925), for which the “log2 mean competition ratio” value is -0.101 in assay [1] (50 µM), -0.0933 in assay [1] (200 µM), -0.527 in assay [2] (50 µM) and 0.00752 in assay [2] (200 µM).
In the same order, the values of PIK3C2A C804 (UniProt O00443) are -0.117, 0.0171, 0.159 and 0.193.
As to POLR1A C582 (UniProt O95602), the “log2 mean competition ratio” value in assay [1] (50 µM) was 0.262; in assay [1] (200 µM), -0.00898; in assay [2] (50 µM), 0.306; in assay [2] (200 µM) it was 0.0182.
For POLK C681 (UniProt Q9UBT6), in that order: 0.109, -0.33, -0.0063 and -0.278.
For PIP4K2A C343 (UniProt P48426), in that order: -0.201, -0.0715, -0.342 and -0.324.
In the same order, the values of PI4KA C95 (UniProt P42356) are 0.508, 0.364, 0.567 and 0.096.
For PKN2 C118 (UniProt Q16513), the “log2 mean competition ratio” value in assay [1] (50 µM) is -0.0504; in assay [1] (200 µM), 0.413; in assay [2] (50 µM), 0.143; in assay [2] (200 µM), 0.0404.
For PNN C249 (UniProt Q9H307), in that order: 0.147, 0.198, 0.311 and 0.158.
For PLPBP C86 (UniProt O94903), in that order: -0.0422, -0.329, -0.103 and -0.311.
In the same order, the values of PIK3R4 C693 (UniProt Q99570) are -0.245, 0.2, 0.179 and 0.214.
PHKA2 C681 (UniProt P46019): the “log2 mean competition ratio” value in assay [1] (50 µM) was -0.068; in assay [1] (200 µM), -0.219; in assay [2] (50 µM) it was 0.63; in assay [2] (200 µM), -0.134.
For PLAA C605 (UniProt Q9Y263), in that order: 0.3, 0.1, 0.281 and 0.332.
In the same order, the values of PLIN3 C60 (UniProt O60664) are 0.112, 0.124, 0.0593 and 0.109.
For PML C389 (UniProt P29590), in that order: -0.143, 0.0529, -0.321 and 0.0483.
As to PHF3 C350 (UniProt Q92576), the “log2 mean competition ratio” value was -0.259 in assay [1] (50 µM), -0.129 in assay [1] (200 µM), 0.0221 in assay [2] (50 µM) and -0.193 in assay [2] (200 µM).
As for POGK C218 (UniProt Q9P215), the “log2 mean competition ratio” value was -0.177 in assay [1] (50 µM), 0.316 in assay [1] (200 µM), -0.137 in assay [2] (50 µM) and -0.23 in assay [2] (200 µM).
For PIAS4 C326 (UniProt Q8N2W9), in that order: -0.11, -0.289, -0.0695 and -0.142.
PHF3 C276 (UniProt Q92576): the “log2 mean competition ratio” value in assay [1] (50 µM) is -0.354; in assay [1] (200 µM), 0.38; in assay [2] (50 µM), -0.227; in assay [2] (200 µM), 0.554.
